Construct, isoform or probe ends are uncertain for at least one entry.
Each sequence was assayed against RpoS (sigma38) (Pseudomonas protegens FD6) (UniProt Q4KHE5) (assay: EMSA). Settings: EMSA with Beyotime kits GS002/GS009 (binding buffer and temperature not stated); biotin probe 1 uM (legend; Methods say 1 umol); 100-fold unlabeled competitor; recombinant protein; residues 1-335; protein details: C-terminal His-tag (pET22b); label: biotin.
“AACTATGCTTTGGCGCTCGAAAATG (double strand) [pltL promoter probe]”: binds.
“CCACTAGAACTATTTTTGTATCCAG (double strand) [pltR promoter probe]”: binds.
“CGCGATTCCATCGGCACTACGATCT (double strand) [pltF promoter probe]”: binds.
“CGCTCTCACTAAGTTAAATTCAAAT (double strand) [phlG promoter probe]”: binds.
“TTGCACCGATCTATCTAGTTTTTAA (double strand) [phlA promoter probe]”: binds.
